The supplement of paper PMC3334620
The full ranking holds about 33,000 sequences; the median of “E-score (-0.5 to 0.5)” is about -0.0014, and the highest 2% start at about 0.25. The list shows a part of the results.

Each sequence was assayed against T1, Cad1 (UniProt P24813) (assay: PBM E-score (8-mer binding enrichment) (E-score (-0.5 to 0.5)); higher = stronger / more preferred TF binding). Settings: protein concentration: 100 nM; construct: GST-full length.
T1 sequence: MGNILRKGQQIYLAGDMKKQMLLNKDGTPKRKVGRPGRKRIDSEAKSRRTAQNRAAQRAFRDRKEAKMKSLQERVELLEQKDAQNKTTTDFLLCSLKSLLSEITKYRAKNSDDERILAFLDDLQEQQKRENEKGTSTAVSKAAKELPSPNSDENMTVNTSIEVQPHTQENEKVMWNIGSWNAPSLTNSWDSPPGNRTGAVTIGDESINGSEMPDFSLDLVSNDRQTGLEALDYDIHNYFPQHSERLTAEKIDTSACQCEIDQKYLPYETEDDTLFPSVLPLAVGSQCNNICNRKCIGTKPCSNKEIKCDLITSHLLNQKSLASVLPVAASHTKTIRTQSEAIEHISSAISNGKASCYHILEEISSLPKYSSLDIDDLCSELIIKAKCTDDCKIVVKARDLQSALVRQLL
In short: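 Each ungapped eight-base word and its reverse complement, pooled, received an E-score from the Universal PBM Analysis Suite. Underlying scans, normalised with masliner, recorded fluorescent anti-GST bound to GST-tagged yeast transcription factors. These were applied at about 100-200 nM to universal all-10-mer Agilent arrays double-stranded by primer extension.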

Sequence	PBM E-score
TCAACCGA	0.0888
CAGTATGG	-0.0483
GTTGTGGA	0.00861
CGAAAAAC	0.0924
GGATGCAA	-0.156
AAGTGCCA	-0.0312
CGAGCATA	-0.0892
GTAACTGA	0.00925
CAAGGCTC	-0.318
CCCGTCCC	-0.033
AGACCACA	-0.0838
CCGAATCG	0.0646
AGAAGAGC	-0.0404
ACTACGCG	-0.12
GAACTGGC	0.037
AATTATGT	0.167
AAACGTCG	0.0516
GCAGTGGC	-0.0938
CACCAGTA	0.136
ACCGTTCC	0.103
CCGTGAGC	-0.158
AGAGACGA	-0.00272
ATAGGGGC	-0.178
CCGCTAGA	-0.225
GGGACTGA	-0.16

Sequence	PBM E-score
CTGGATGA	-0.0133
AGAAAGCT	0.142
AGTAGGAG	-0.156
GGGGTAAA	0.0473
AGAAGGTG	-0.104
AGGAAGCG	0.00275
ACGGACCT	-0.0269
GGCGGGCA	-0.102
AACAGTCC	-0.0882
AGATCGCA	0.0335
TCAGATAA	0.186
AGGCATCA	-0.194
CGAAGAGA	0.106
ACGCCCAG	0.0778
CGCCGACC	-0.0333
CCGCACCC	0.00697
CTATACAG	0.048
CGCACGAG	-0.174
AGTTCTTA	0.174
AAGACACT	-0.0345
AGGTCTGG	-0.167
ATATACCC	-0.0212
ATGAGAAT	0.167
CGCGAGCG	-0.0498
CACGTCTA	-0.0255

Sequence	PBM E-score
GGTTATAC	0.0388
CGGTGCGC	0.00393
CACTGCTC	0.0649
GTATGAAC	0.124
AATCACTG	0.0205
GCACCCTA	-0.0728
AATCCGTA	0.0292
AATCTTTC	-0.0314
GACATACC	-0.0711
ACACTCGG	0.151
GCTGGGAC	-0.154
ATACACTG	0.0143
CCGGCCAA	-0.0872
GATTTAAC	-0.0415
CTACGGCA	-0.00328
GTCGTTCA	-0.044
ATTATCCA	0.141
GGTTTCTA	-0.0727
CTGTGTTA	0.11
CACGTTAC	-0.077
CTTACTTA	0.0867
GGTGTAAA	-0.0674
CTACACTA	-0.0764
ATTAATCG	0.234
ATCACTTA	-0.0137

Sequence	PBM E-score
GTGGGGCA	-0.0368
GGCTCTGA	-0.195
CTGTAGGC	0.0294
TCTCATCA	0.0542
AATTGTGG	-0.0823
ATAGTTAC	-0.0281
ACAGGTCG	-0.138
AACCAACC	0.0511
CAACAACA	0.269
GTAGTAGA	-0.0685
CGCCAGCA	-0.205
TATATGCA	0.12
TAGTCGAA	0.0593
AGTACGAA	0.22
ATGCCTCA	-0.0731
CGGAGCAG	-0.0854
CAGTGGAC	0.0787
GCTGGCGA	-0.039
ATTATAGC	-0.0558
ATGCCACC	-0.309
CGGCGAGA	0.158
CTACATAC	0.0451
ATGCGTAG	0.0673
ACGATACT	-0.131
CCTGCATC	0.13

Sequence	PBM E-score
AATGCCAG	-0.0919
CGTCGGAC	-0.0431
AAGCGACC	0.124
TACAGGGA	-0.196
GGAGGACA	-0.135
ATGCTTCA	-0.121
AATGGCAT	0.111
AATACTGA	0.0566
AACGACCA	0.0102
GGGGGCTA	-0.41
AGAACTGG	0.0468
GGACCAGA	-0.197
GAAACAAC	-0.104
ACTTTCTA	-0.028
CGAGCTGC	-0.0193
TAAGACCA	-0.0792
ACATACGG	0.109
CTCCACCA	-0.193
GGTCTAAA	0.0161
AAAAGGGC	-0.115
AGGTAGAA	-0.164
GCACGGAA	0.00167
GCGCATCA	0.0478
CGAGTTGA	0.0754
AGCTGCTC	-0.0947

Sequence	PBM E-score
AAAGGTGC	-0.176
GGGACTAA	-0.131
CACGCAAA	0.0783
AATTTCCA	0.105
GGTAGGCA	-0.00857
CAGCTTAC	0.224
AAGTCCAA	0.0926
ATCGTACC	-0.18
AAACTCTG	-0.00764
CGGGCACC	-0.151
AAAAGTTC	0.138
ATTTTCTA	0.133
GGTACCAA	-0.0224
ATGACCGA	-0.118
CTACCCGA	0.0466
AGAGGCGG	-0.126
TAGTGAAA	-0.0548
CGTACTAG	0.0749
GGACCTTA	-0.121
CCCTAGGC	-0.079
CTGCAACC	-0.106
AACTGATA	0.0697
CATTTGAA	0.0921
CTCTCCGC	0.0395
CCCAGCCG	-0.0415

Sequence	PBM E-score
GTACTTTA	-0.131
CACTGTCC	0.143
GCCGAGCC	0.0157
ACACTCGA	0.0775
GTTAGTTA	0.155
AATAGATG	0.0261
CGTGCTGC	0.0297
AATTGATC	-0.0161
AGTGAGAT	-0.13
AGTCCCCG	-0.208
GCCCACTA	-0.0305
AGCCTATA	0.0222
GAAACACC	0.125
CCGCTGGC	-0.0612
CATAAGGG	-0.00535
AGAGCACT	-0.0353
CGGGTATA	0.0615
AGGGTCGG	-0.181
CGCAAGTC	-0.199
AGTGTATC	0.0261
CCCTTGCG	-0.169
ATGCGTAA	0.0508
TATACCCA	-0.174
TCGAAAGA	0.0238
CCCAATGA	-0.156

Sequence	PBM E-score
AAGGTGCT	0.00352
CTAAGCAC	0.294
GACTAGGC	-0.0746
ACGCGTAG	0.0376
CATCACGG	-0.0297
CTCCATCC	-0.231
AACAACCA	0.173
GGTATGGA	0.0414
AACTGACC	-0.0719
CGATGTAA	0.104
ATACAAGA	-0.0454
GGATCTAC	-0.169
AATGCGAC	0.0554
CACGGGAC	-0.0278
GCCCAAGC	0.00488
AAAACTTG	0.0743
GCAGCCGC	-0.0809
CTAAATTA	0.2
GGTCGCCA	-0.186
AGTAGCGC	0.193
GCTTGGAC	-0.0816
TAGAATCA	-0.178
ATTAACCC	0.034
ACTAGTGA	-0.131
CCATCCTA	0.00667

Some of the entries above, reformatted:
Sequence,PBM E-score
CTAAGCAC,0.294
GACTAGGC,-0.0746

Further results follow:

Sequence	PBM E-score
CGGGCCAC	0.041
CCCATGTC	-0.219
CTCCCTTA	-0.221
TAGTAAGA	0.265
ATAATAAG	0.198
CTCGCCCC	-0.182
GTGTTGTA	0.063
CAACACCC	-0.0252
CGGCGGTC	-0.257
CCTCACTC	0.0114
AGGCTAAC	0.00141
GGACATAA	0.102
AGCACCCC	-0.144
AACAAGTC	-0.0382
AAGACATA	0.0477
CTCGGGGA	-0.0482
CTCCAGAA	-0.218
ACATCTAT	0.0992
CTCGCAAG	0.046

Shown with bars between the fields: entries from further up
Sequence | PBM E-score
ATAGTTAC | -0.0281
ACAGGTCG | -0.138
AACCAACC | 0.0511
CAACAACA | 0.269
GTAGTAGA | -0.0685
CGCCAGCA | -0.205
